Results on one substance are retold here after PMC12711579.

Holding throughout (test): two-hybrid; Clontech Matchmaker Gold; pGADT7 (AD) and pGBKT7 (BD) fusions co-transformed into Y2H Gold yeast; serial dilutions on DDO, TDO (−His/−Leu/−Trp, screens for weak interactions) and QDO (−His/−Ade/−Leu/−Trp, screens for strong interactions); 3–5 days at 30 °C
In one assay the target is T1, ASY3 (A. thaliana) (UniProt Q0WR66).
T1 sequence: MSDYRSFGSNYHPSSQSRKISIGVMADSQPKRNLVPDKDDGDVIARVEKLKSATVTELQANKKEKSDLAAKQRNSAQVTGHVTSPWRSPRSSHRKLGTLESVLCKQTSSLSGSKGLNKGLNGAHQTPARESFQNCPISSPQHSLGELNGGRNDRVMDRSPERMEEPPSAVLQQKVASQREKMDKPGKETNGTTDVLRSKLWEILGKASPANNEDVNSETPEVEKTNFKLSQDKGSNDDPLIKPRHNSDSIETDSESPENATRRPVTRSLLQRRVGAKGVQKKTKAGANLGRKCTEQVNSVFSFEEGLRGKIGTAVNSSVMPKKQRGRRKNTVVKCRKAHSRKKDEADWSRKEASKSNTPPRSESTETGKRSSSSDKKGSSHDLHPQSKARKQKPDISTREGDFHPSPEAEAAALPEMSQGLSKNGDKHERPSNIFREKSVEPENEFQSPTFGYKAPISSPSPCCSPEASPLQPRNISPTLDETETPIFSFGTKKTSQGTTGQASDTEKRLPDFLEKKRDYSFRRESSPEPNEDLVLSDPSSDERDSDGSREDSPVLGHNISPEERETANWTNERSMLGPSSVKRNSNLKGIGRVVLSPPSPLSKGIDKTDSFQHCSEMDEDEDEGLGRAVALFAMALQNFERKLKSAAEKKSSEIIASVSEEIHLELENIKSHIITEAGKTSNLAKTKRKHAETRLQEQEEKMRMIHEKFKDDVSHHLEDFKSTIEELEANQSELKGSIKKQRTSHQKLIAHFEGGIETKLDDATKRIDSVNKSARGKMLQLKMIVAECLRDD

The next assay deals with T2, PCH2 (A. thaliana) (UniProt Q8H1F9).
T2 sequence: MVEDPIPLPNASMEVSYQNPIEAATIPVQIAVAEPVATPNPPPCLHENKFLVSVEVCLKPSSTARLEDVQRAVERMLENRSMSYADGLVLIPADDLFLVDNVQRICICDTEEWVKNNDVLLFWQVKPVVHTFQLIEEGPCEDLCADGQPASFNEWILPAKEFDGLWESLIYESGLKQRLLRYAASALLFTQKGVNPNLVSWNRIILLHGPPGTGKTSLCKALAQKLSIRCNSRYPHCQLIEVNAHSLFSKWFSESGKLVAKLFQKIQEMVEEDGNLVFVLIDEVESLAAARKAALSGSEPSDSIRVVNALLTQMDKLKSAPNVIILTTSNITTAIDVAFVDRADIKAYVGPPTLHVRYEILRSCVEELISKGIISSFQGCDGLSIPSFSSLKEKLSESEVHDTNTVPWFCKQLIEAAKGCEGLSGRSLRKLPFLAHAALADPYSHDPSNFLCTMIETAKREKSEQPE

The next assay concerns the target T3, ASY1 (A. thaliana) (UniProt F4HRV8).
T3 sequence: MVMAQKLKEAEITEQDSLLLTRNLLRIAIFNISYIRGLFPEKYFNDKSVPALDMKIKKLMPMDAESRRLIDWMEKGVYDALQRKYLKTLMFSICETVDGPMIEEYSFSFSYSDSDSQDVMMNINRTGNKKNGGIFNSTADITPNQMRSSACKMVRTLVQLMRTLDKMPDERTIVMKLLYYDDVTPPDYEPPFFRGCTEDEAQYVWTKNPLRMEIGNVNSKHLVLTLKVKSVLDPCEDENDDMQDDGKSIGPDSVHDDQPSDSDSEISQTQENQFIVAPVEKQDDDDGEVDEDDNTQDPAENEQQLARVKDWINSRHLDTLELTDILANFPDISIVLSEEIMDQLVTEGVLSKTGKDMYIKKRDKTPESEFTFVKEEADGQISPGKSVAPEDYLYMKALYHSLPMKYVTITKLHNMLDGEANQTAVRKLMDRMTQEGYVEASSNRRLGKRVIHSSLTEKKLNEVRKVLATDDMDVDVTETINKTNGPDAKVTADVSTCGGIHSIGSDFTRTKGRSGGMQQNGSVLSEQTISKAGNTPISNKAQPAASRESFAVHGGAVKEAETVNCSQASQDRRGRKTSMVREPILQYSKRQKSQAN

A further assay deals with T4, MLH1 (A. thaliana) (UniProt Q9ZRV4).
T4 sequence: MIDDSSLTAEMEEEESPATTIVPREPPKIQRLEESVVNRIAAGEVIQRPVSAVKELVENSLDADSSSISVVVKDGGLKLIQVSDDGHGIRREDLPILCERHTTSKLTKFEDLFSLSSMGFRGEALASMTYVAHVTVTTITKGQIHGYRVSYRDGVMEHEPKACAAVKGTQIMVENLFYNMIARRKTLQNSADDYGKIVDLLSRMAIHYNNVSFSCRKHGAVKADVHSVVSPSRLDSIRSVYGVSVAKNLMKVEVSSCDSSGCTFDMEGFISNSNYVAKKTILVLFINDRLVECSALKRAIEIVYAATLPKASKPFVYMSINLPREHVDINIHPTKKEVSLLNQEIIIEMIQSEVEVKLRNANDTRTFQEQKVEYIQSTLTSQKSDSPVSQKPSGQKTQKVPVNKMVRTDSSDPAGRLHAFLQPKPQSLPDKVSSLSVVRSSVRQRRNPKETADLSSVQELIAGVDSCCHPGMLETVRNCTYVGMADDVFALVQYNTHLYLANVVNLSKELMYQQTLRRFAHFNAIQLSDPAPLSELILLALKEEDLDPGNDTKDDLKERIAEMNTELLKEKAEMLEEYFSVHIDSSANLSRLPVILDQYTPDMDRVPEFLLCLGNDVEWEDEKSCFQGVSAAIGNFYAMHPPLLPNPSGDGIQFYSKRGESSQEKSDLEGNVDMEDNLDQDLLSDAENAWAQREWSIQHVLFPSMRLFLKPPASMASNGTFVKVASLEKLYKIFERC

The target in the next assay is T5, HEI10 (A. thaliana) (UniProt F4HRI2).
T5 sequence: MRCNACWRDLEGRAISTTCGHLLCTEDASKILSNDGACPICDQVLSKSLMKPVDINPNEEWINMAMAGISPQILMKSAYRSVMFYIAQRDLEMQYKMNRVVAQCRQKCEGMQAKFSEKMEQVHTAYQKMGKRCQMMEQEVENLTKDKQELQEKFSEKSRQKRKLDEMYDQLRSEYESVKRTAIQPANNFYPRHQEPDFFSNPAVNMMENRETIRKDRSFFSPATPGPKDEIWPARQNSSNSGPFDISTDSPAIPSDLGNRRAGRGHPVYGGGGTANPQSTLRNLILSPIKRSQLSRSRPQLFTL

No constants are given. Whether binding was seen depends on the method and setting. For some assays here: A result given as binding can be weak or reduced; the word gives no strength.

As for “SCEP3, full-length (AD–SCEP3) (from UniProt A0A1P8B5T3)”, the binding result is reported as “no binding” in the assay with ASY3 (A. thaliana); “binds” in the assay with PCH2 (A. thaliana); “no binding” with ASY1 (A. thaliana); “no binding” with MLH1 (A. thaliana); “no binding” with HEI10 (A. thaliana).
